# Data: article doi:10.1101/2024.01.31.578225
# By UniProt entry, the sequences of proteins in these tests, tags left out. Where a name states a change or a piece, a line headed by the entry shows the natural chain unless it says otherwise.
# UniProt A0A3Q7I824: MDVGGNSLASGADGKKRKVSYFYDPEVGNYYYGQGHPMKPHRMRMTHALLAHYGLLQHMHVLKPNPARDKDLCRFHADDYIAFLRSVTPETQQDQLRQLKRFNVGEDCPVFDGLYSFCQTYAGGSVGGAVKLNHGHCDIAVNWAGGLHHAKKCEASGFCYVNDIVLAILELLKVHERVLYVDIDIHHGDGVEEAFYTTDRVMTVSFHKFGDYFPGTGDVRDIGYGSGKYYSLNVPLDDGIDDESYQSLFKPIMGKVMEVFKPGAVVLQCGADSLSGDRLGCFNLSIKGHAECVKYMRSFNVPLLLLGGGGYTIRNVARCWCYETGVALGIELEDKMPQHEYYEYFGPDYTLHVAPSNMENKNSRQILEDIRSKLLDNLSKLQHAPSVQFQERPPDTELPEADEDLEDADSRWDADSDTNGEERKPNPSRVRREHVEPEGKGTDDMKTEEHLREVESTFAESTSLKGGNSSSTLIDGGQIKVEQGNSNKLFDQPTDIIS
# UniProt A0A3Q7GY95: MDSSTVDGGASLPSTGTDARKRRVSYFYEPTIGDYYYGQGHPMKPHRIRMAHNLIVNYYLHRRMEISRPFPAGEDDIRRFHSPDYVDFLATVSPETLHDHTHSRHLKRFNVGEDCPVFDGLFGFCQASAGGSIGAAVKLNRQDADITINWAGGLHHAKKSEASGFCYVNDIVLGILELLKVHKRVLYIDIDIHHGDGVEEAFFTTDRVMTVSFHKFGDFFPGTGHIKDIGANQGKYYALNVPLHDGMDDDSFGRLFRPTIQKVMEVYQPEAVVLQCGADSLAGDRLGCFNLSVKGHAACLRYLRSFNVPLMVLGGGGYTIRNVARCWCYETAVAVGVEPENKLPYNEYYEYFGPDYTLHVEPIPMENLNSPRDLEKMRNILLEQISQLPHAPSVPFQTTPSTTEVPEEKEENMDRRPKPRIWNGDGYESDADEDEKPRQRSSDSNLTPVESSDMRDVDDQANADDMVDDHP
# No constants are given. Whether binding was seen depends on the method and setting. Binding can be weak; no strength is given. Where a sequence is shown, tags or fusion partners need not be part of it.
# Key:
# [1] = molecular target: T1, GST-SlWRKY80 fusion protein (tomato (Solanum lycopersicum)) (UniProt K4BIZ9); experiment: pull-down
# T1 sequence: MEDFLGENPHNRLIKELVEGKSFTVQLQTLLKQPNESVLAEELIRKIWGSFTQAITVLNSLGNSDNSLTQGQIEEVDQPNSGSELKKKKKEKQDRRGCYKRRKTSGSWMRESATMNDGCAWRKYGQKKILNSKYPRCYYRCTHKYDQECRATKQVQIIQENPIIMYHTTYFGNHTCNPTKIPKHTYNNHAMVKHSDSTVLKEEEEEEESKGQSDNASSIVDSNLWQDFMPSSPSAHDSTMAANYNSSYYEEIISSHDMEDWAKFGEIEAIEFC
# [2] = molecular target: T2, BD-SlWRKY80(68-273) (tomato (Solanum lycopersicum)) (UniProt K4BIZ9); experiment: two-hybrid
# T2 sequence: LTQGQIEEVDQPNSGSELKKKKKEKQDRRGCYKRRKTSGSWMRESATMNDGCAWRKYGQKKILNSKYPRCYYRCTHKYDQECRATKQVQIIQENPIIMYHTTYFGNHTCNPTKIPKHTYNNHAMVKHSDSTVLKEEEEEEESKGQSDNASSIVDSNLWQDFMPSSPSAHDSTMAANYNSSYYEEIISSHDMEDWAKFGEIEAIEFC
binding [1],binding [2],Substance
binds,–,MBP-SlHDA1 fusion protein (from UniProt A0A3Q7I824)
–,binds,SlHDA1 (pGADT7 fusion) (tomato (Solanum lycopersicum))
–,binds,SlHDA3 (pGADT7 fusion) (from UniProt A0A3Q7GY95)
–,binds,SlHDA9 (pGADT7 fusion) (from UniProt A0A3Q7GGL3)
